From PubChem BioAssay AID540276 (National Center for Advancing Translational Sciences (NCATS), 2011)
Where “and” joins values, the source holds several entries; their conditions need not be identical. Identical values can stand only once. Screen size: about 300,000 compounds; about 5,400 (1.8%) were called active. The shares of active, inactive and inconclusive entries below differ from those in the screen. The call rests on the fitted dose curve; tested in HEK293 cells. A potency beside an inconclusive call is a rough fit, not a confirmed value.

Experiment: qHTS for inhibitors of binding or entry into cells for Marburg Virus
Settings: Marburg virus pseudotyped entry inhibition, cell reporter; activity change, negative = inhibition: at 37.8 µM (top of the series) unless noted
On the % scale 0 is the no-effect control and ±100 the full control effect; potency means the concentration at half of the fitted maximal effect.

Compound | Potency | activity change, negative = inhibition
CCc1cc2c(nc1CC)CCN(CC/C(C)=N/OC[C@H]1O[C@H](c3ccccc3)C=C[C@@H]1Oc1ccc(OC)cc1)C2 | inactive | 
O=C(CNc1cccc(S(=O)(=O)N2CCCC2)c1)Nc1ccc(C(F)(F)F)cc1 | inconclusive: 2.51 µM [inhibitor, full curve, poor fit] | 
COc1ccccc1C(=O)NCC(=O)NCCC(c1ccccc1)c1ccccc1 | inconclusive: 15.8 µM [inhibitor, single point] | 
O=C(CCc1nnc(-c2ccccc2)o1)c1ccc(Cl)cc1 |  | inactive: -1.05% [at 46.1 µM]
O=c1[nH]c2ccccc2nc1/C=C/c1ccc(Cl)cc1 |  | inactive: 5.05% [at 14.2 µM]
Cc1cc(C(=O)CNCc2ccco2)c(C)n1-c1ccc(F)cc1 | inconclusive: 25.9 µM [inhibitor, single point] | 
c1cncc(Cc2cc3ccccc3[nH]2)c1 | inconclusive: 6.31 µM [activator, partial curve] | 
O=C(CSc1ccc(-c2ccc(Cl)cc2)nn1)N1CCCc2ccccc21 | inconclusive: 0.562 µM [inhibitor, partial curve, poor fit] | 
Cc1ccc(NC(=O)/C=C/c2ccc(C)o2)c(C)c1 | inconclusive: 35.5 µM [activator, single point] | 
Cc1cccc(N2CCN(C(=O)c3cc4c(=O)oc5ccccc5c4s3)CC2)c1C | inconclusive: 5.62 µM [inhibitor, single point] | 
CC1CN(C(=S)NC2CCCC2)CC(C)O1 (stereo not drawn) | inconclusive: 35.5 µM [activator, single point] | 
Cc1ccc(CN(Cc2ccco2)C(=O)COc2cc(C)c(Cl)c(C)c2)cc1 |  | inactive: -2.67% [at 46.1 µM]
CC(=O)Nc1ccc(C=NNc2nnc(NN=Cc3ccc(NC(C)=O)cc3)c3ccccc23)cc1 | inconclusive: 8.91 µM [inhibitor, partial curve, poor fit] | 
CC(C)OC(=O)c1cccc(NC(=O)c2ccccc2)c1 |  | inactive: 0.134%
CCN(CC(=O)Nc1c(F)cccc1F)C(=O)CCNS(=O)(=O)c1ccc(C)c(C)c1 | inconclusive: 0.1 µM [inhibitor, full curve, poor fit] | 
CCOc1ccc(CSC2=NCCN2)cc1[N+](=O)[O-] | active: 3.98 µM | 
O=C(Cn1c(=O)n(-c2ccc(F)cc2)c(=O)c2sccc21)N1CCCC1 |  | inactive: 20%
CC[C@]12c3[nH]c4cc(CCC(=O)N(C)C)ccc4c3CCN1C(=O)[C@@H](CC(=O)NCCc1ccccn1)C[C@@H]2C(=O)N1CCN(C(=O)c2ccco2)CC1 |  | inactive: -2.9%
Cc1nn(-c2ccccc2)c(C)c1/C=N/NC(=O)c1cc(C23CC4CC(CC(C4)C2)C3)[nH]n1 | inconclusive: 12.6 µM [inhibitor, partial curve, poor fit] | 
CCOC(=O)c1ccc(CNS(=O)(=O)c2c(C)ccc3nsnc23)o1 |  | inactive: 12.8%
COc1ccc(O)c(C=NCC(C)N=Cc2cc(OC)ccc2O)c1 (stereo not drawn) | inconclusive: 35.5 µM [activator, single point] | 

Compound | Potency | activity change, negative = inhibition
CCOC(=O)c1ccccc1OCc1cc(/C=N/n2cncn2)ccc1OC | inconclusive: 7.3 µM [inhibitor, partial curve] | 
CCCC1=Nc2cc(C(=O)NC(C)c3ccccc3)ccc2Sc2ccc(C)cc21 (stereo not drawn) | inconclusive: 14.1 µM [inhibitor, single point] | 
Cc1ccc(NC(=Nc2ccc(Br)cc2)N2CCOCC2)cc1C | inconclusive: 12.6 µM [inhibitor, single point] | 
CCOc1ccc(N=C2NC(=O)C(CC(=O)O)S2)cc1 (stereo not drawn) | inconclusive: 3.55 µM [inhibitor, partial curve, poor fit] | 
Cn1c2c(c(=O)n(C)c1=O)C(C(F)(F)F)(C(F)(F)F)N=C(c1ccccc1Cl)N2 | inconclusive: 0.164 µM [inhibitor, full curve, poor fit] | 
COC(=O)CCC(=O)COc1ccccc1C#N |  | inactive: -0.0222%
COc1ccc(CN(C)C(=O)c2cccc(S(=O)(=O)N3CCN(c4ccccc4)CC3)c2)c(OC)c1OC | inconclusive: 10 µM [inhibitor, partial curve, poor fit] | 
CC(/C=C/c1ccccc1F)=N\NC(=O)c1cccc(F)c1 | inconclusive: 28.2 µM [inhibitor, single point] | 
CCC(C)[C@H](NC(=O)NCc1ccccc1Cl)C(=O)OC (stereo partly drawn) | inconclusive: 29.1 µM [inhibitor, single point] | 
O=C(CSc1nc(C2CC2)nc2ccccc12)N1c2ccccc2Sc2ccc(C(F)(F)F)cc21 | inconclusive: 20.6 µM [inhibitor, single point] | 
CC(C)(C)NC(=S)N1CCC(C(=O)c2ccc(Cl)cc2)CC1 | inconclusive: 1.26 µM [inhibitor, single point] | 
COc1cccc(C2NC(=O)CCC2[N+](=O)[O-])c1OC (stereo not drawn) | inconclusive: 1.78 µM [inhibitor, partial curve, poor fit] | 
COc1ccc(S(=O)(=O)N(C)c2ccc(C(=O)Nc3ccccc3C(=O)N3CCOCC3)cc2)cc1OC |  | inactive: -19.1%
CC(C)COC(=O)NCCOC(=O)Nc1cccc(Cl)c1 | inconclusive: 35.5 µM [inhibitor, single point] | 
CCc1ccc(OCC(=O)N(CC)CC)cc1 | inconclusive: 2.24 µM [activator, full curve] | 
CCc1ccc(C(=O)c2cn(CC(=O)Nc3ccc(OC)c(OC)c3)c3ccc(C)cc3c2=O)cc1 | inconclusive: 11.2 µM [inhibitor, partial curve, poor fit] | 
O=C1NCCN(Cc2c(F)cccc2Cl)C1CC(=O)N1CCCO1 (stereo not drawn) | inconclusive: 6.31 µM [inhibitor, single point] | 
CCCCOc1cccc(C2c3c(oc4ccccc4c3=O)C(=O)N2c2ccccn2)c1 (stereo not drawn) |  | inactive: 2.52% [at 46.1 µM]
Cc1ccc2nc(-c3ccccc3)cc(C(=O)NCC3CCCO3)c2c1 (stereo not drawn) | inconclusive: 35.5 µM [inhibitor, partial curve, poor fit] | 
Cc1cccc(OP(=O)(Oc2ccccc2)OC(c2ccccc2)C(F)(F)F)c1 (stereo not drawn) | inconclusive: 18.4 µM [inhibitor, single point] | 
Cc1cc(C)c(-n2c(O)c(/C=N/N3CCCCC3c3cccnc3)c(=O)[nH]c2=O)c(C)c1 (stereo not drawn) | inconclusive: 1.12 µM [inhibitor, full curve, poor fit] | 

Compound | Potency | activity change, negative = inhibition
COc1ccccc1N1CCN(c2ncccc2-c2nc(-c3ccc(Cl)cc3)no2)CC1 | inconclusive: 1.12 µM [inhibitor, full curve, poor fit] | 
Cc1cccc2cc(CN(C(=S)NCC(C)C)C3CCCC3)c(=O)[nH]c12 | inconclusive: 12.6 µM [inhibitor, partial curve, poor fit] | 
COc1ccc(NC(=O)Nc2ccc(F)c(F)c2)c(OC)c1 | inconclusive: 6.31 µM [activator, single point] | 
COc1cc(NC(=O)CN(C)S(=O)(=O)c2ccc(C)cc2)cc(OC)c1 | inconclusive: 0.146 µM [inhibitor, full curve, poor fit] | 
CCOC(=O)Cn1c(=N)n(CCOc2ccc3ccccc3c2)c2ccccc21 | inconclusive: 35.5 µM [inhibitor, single point] | 
CCOC(=O)c1ccc(NC(=O)c2cn(-c3ccccc3)nc2-c2ccncc2)cc1 | active: 7.08 µM | 
O=C(O)c1ccc(N/N=C/c2ccc(-c3ccccc3Cl)o2)cc1 | inconclusive: 6.31 µM [inhibitor, partial curve, poor fit] | 
C[C@]12CCC3C(CC[C@H]4C[C@@H](O)CC[C@]34C)C1CCC2=O (stereo partly drawn) | inactive | 
CC(=N/O)/C(C)=N\NC(=O)c1ccccn1 |  | inactive: -7.12% [at 46.1 µM]
CCOc1ccc(NC(=O)C(C)Oc2ccccc2C(=O)Nc2cccc(Cl)c2Cl)cc1 (stereo not drawn) | inconclusive: 7.08 µM [inhibitor, partial curve, poor fit] | 
Cc1cccc(C)c1NC(=S)NN(Cc1ccccc1)c1ccccc1 | inconclusive: 4.47 µM [inhibitor, partial curve, poor fit] | 
COc1ccc(/C=C2\C(=O)ON=C2c2ccccc2)cc1 | inconclusive: 31.6 µM [inhibitor, partial curve, poor fit] | 
Cc1cc(C)c(OCCNC(=O)c2ccccc2Sc2ccccc2C#N)c(C)c1 | inconclusive: 10.3 µM [inhibitor, partial curve, poor fit] | 
COc1ccc2c(CC(=O)OCC(=O)c3ccccc3OC)coc2c1 | inconclusive: 3.16 µM [activator, partial curve, poor fit] | 
O=C(CNC(=O)C12CC3CC(CC(C3)C1)C2)N1CCN(S(=O)(=O)/C=C/c2ccccc2)CC1 |  | inactive: -16.9%
CSc1ccccc1NC(=O)c1cc(-c2cccnc2)nc2ccc(Br)cc12 | inconclusive: 20 µM [inhibitor, partial curve, poor fit] | 
CN(C)CCCN(Cc1ccccc1)C(=S)Nc1ccc(F)c(Cl)c1 | inconclusive: 25.1 µM [inhibitor, single point] | 
O=C(Cn1ncc2c(=O)oc3ccccc3c21)NC1CC1 | inconclusive: 0.251 µM [activator, full curve, poor fit] | 
CN(CC(=O)Nc1cccc(F)c1)C(=O)/C=C/c1cn(Cc2ccccc2)nc1-c1cccnc1 | inconclusive: 1.26 µM [inhibitor, single point] | 
CCN(CC)c1cc(C)c2cc(NC(=O)c3ccccc3OC)ccc2n1 | inconclusive: 35.5 µM [inhibitor, single point] and inconclusive: 20 µM [inhibitor, partial curve, poor fit] | 
CCN(CC)/C(=N/S(=O)(=O)c1ccc(C)cc1)c1ccccc1 | inconclusive: 3.66 µM [inhibitor, full curve, poor fit] | 
